For 4 molecules, binding results are on record in paper PMC6802643.

Protein sequences, listed by entry. Tags and fused reporters are not part of them.
UniProt Q8R4B8: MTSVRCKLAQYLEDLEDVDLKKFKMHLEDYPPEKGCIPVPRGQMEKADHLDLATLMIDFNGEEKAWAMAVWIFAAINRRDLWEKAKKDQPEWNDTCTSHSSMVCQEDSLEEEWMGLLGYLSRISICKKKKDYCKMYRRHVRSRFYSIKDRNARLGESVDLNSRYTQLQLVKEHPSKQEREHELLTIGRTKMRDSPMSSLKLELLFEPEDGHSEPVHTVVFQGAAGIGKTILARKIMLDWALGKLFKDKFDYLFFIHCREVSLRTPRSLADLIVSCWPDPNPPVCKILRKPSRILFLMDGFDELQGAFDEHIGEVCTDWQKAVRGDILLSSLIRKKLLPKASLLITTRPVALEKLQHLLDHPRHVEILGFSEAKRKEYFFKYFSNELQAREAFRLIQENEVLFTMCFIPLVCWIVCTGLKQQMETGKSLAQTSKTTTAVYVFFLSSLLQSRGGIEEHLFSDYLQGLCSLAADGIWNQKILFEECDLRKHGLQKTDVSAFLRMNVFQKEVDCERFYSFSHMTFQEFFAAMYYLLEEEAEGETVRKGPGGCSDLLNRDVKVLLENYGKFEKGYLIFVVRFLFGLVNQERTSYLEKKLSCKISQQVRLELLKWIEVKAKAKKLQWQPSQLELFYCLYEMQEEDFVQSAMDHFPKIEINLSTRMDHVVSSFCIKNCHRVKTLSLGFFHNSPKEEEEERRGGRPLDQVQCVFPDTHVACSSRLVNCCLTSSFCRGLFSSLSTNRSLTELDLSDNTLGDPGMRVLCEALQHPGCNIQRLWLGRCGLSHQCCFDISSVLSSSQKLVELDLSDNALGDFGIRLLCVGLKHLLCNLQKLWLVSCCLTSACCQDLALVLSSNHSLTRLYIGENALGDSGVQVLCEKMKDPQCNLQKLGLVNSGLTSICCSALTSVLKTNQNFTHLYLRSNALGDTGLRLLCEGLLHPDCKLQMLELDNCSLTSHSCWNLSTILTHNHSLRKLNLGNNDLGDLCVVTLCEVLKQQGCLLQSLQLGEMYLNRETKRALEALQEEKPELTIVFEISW

These are yes or no findings as the source states them, for the method shown. In cells and extracts the contact can be indirect. Some entries that bind do so weakly or less than the wild type.

For assay [1], the target named is T1, Kir6.1, pore-forming subunit of the K-ATP channel (endogenous, mouse BMDMs) (mouse (endogenous in BMDMs)) (UniProt P97794).
T1 sequence: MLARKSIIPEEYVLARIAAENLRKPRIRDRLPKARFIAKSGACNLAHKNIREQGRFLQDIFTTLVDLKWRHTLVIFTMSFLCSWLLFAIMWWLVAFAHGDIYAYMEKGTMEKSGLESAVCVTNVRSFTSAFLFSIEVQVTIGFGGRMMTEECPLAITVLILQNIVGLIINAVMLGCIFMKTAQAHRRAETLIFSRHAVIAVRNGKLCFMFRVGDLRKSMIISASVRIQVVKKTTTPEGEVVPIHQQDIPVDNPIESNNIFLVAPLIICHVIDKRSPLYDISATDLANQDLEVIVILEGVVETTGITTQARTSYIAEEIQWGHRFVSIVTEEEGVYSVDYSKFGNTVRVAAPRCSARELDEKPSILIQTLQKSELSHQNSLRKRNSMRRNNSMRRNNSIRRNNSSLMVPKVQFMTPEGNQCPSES
Description: co-IP; endogenous proteins in lysates of BMDMs from WT and Kir6.1 KO mice (ATP-stimulated cells among them); 2 ug of antibodies (ASC, NLRP3 or Kir6.1) overnight at 4 °C, then protein A/G plus agarose beads 2-4 h; lysis buffer 50 mM Tris-HCl pH 7.4, 1% NP-40, 150 mM NaCl; detection by immunoblotting. In general terms: Immunoblotting shows a protein as a band on a membrane.

In assay [2] the target is NLRP3 (NOD-like receptor family, pyrin domain-containing 3; endogenous, mouse BMDMs) (mouse (endogenous in BMDMs)) (UniProt Q8R4B8). The description is as above.
Assay [3] addresses N-terminally FLAG-tagged mouse NLRP3 expressed from pcDNA3 in HEK293T cells (mouse) (UniProt Q8R4B8). Description: co-IP; HEK293T cells cotransfected with N-terminally FLAG-tagged mouse NLRP3 and mouse Kir6.1 for 48 h; lysates (50 mM Tris-HCl pH 7.4, 1% NP-40, 150 mM NaCl) incubated with anti-FLAG M2 magnetic beads overnight at 4 °C; detection by immunoblotting.
Assay [4] concerns the target T2, ASC, adaptor apoptotic speck protein containing a caspase recruitment domain (endogenous, mouse BMDMs) (mouse (endogenous in BMDMs)) (UniProt Q9EPB4).
T2 sequence: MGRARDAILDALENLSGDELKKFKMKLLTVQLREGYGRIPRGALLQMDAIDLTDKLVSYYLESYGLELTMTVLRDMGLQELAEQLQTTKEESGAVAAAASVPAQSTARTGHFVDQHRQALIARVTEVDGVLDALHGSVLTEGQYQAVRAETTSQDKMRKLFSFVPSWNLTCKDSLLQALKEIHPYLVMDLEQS
Description: co-IP; endogenous proteins in lysates of BMDMs from WT and Kir6.1 KO mice (ATP-stimulated cells among them); 2 ug of antibodies (ASC, NLRP3 or Kir6.1) overnight at 4 °C, then protein A/G plus agarose beads 2-4 h; lysis buffer 50 mM Tris-HCl pH 7.4, 1% NP-40, 150 mM NaCl; detection by immunoblotting.

Consider “NLRP3 (NOD-like receptor family, pyrin domain-containing 3; endogenous, mouse BMDMs) (from UniProt Q8R4B8 1-1033)”, for which the binding result in assay [1] is listed as “binds”.

B1: Kir6.1, pore-forming subunit of the K-ATP channel (endogenous, mouse BMDMs) (protein, UniProt P97794 1-424)
chain: MLARKSIIPEEYVLARIAAENLRKPRIRDRLPKARFIAKSGACNLAHKNIREQGRFLQDIFTTLVDLKWRHTLVIFTMSFLCSWLLFAIMWWLVAFAHGDIYAYMEKGTMEKSGLESAVCVTNVRSFTSAFLFSIEVQVTIGFGGRMMTEECPLAITVLILQNIVGLIINAVMLGCIFMKTAQAHRRAETLIFSRHAVIAVRNGKLCFMFRVGDLRKSMIISASVRIQVVKKTTTPEGEVVPIHQQDIPVDNPIESNNIFLVAPLIICHVIDKRSPLYDISATDLANQDLEVIVILEGVVETTGITTQARTSYIAEEIQWGHRFVSIVTEEEGVYSVDYSKFGNTVRVAAPRCSARELDEKPSILIQTLQKSELSHQNSLRKRNSMRRNNSMRRNNSIRRNNSSLMVPKVQFMTPEGNQCPSES
Regarding B1, in assay [2], the binding result is on record as “binds”.

B2: mouse Kir6.1 expressed from pcDNA3.1 in HEK293T cells (protein, UniProt P97794 1-424)
chain: MLARKSIIPEEYVLARIAAENLRKPRIRDRLPKARFIAKSGACNLAHKNIREQGRFLQDIFTTLVDLKWRHTLVIFTMSFLCSWLLFAIMWWLVAFAHGDIYAYMEKGTMEKSGLESAVCVTNVRSFTSAFLFSIEVQVTIGFGGRMMTEECPLAITVLILQNIVGLIINAVMLGCIFMKTAQAHRRAETLIFSRHAVIAVRNGKLCFMFRVGDLRKSMIISASVRIQVVKKTTTPEGEVVPIHQQDIPVDNPIESNNIFLVAPLIICHVIDKRSPLYDISATDLANQDLEVIVILEGVVETTGITTQARTSYIAEEIQWGHRFVSIVTEEEGVYSVDYSKFGNTVRVAAPRCSARELDEKPSILIQTLQKSELSHQNSLRKRNSMRRNNSMRRNNSIRRNNSSLMVPKVQFMTPEGNQCPSES
For B2, the binding entry in assay [3] is given as “binds”.

B3: procaspase-1 (endogenous, mouse BMDMs) (protein, UniProt P29452 1-402)
chain: MADKILRAKRKQFINSVSIGTINGLLDELLEKRVLNQEEMDKIKLANITAMDKARDLCDHVSKKGPQASQIFITYICNEDCYLAGILELQSAPSAETFVATEDSKGGHPSSSETKEEQNKEDGTFPGLTGTLKFCPLEKAQKLWKENPSEIYPIMNTTTRTRLALIICNTEFQHLSPRVGAQVDLREMKLLLEDLGYTVKVKENLTALEMVKEVKEFAACPEHKTSDSTFLVFMSHGIQEGICGTTYSNEVSDILKVDTIFQMMNTLKCPSLKDKPKVIIIQACRGEKQGVVLLKDSVRDSEEDFLTDAIFEDDGIKKAHIEKDFIAFCSSTPDNVSWRHPVRGSLFIESLIKHMKEYAWSCDLEDIFRKVRFSFEQPEFRLQMPTADRVTLTKRFYLFPGH
As to B3, the binding result in assay [4] is reported as “binds”.
